Data taken from the supplement of paper PMC12067093, “Discovery and optimisation of a covalent ligand for TRIM25 and its application to targeted protein ubiquitination” (Chemical Science, 2025).
The other results are listed elsewhere or left out.

Chains of the proteins cited; added tags and fusions are not shown. Lines headed by an entry give the natural chain unless they say otherwise; changes in a name come on top.
UniProt P09488: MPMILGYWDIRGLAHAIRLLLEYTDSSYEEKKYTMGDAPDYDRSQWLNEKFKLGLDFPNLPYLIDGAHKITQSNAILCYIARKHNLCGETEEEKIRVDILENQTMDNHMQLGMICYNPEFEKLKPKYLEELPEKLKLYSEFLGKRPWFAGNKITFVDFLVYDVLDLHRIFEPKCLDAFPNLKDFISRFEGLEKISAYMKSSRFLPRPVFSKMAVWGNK
UniProt Q9BQ67, whole entry, looked up: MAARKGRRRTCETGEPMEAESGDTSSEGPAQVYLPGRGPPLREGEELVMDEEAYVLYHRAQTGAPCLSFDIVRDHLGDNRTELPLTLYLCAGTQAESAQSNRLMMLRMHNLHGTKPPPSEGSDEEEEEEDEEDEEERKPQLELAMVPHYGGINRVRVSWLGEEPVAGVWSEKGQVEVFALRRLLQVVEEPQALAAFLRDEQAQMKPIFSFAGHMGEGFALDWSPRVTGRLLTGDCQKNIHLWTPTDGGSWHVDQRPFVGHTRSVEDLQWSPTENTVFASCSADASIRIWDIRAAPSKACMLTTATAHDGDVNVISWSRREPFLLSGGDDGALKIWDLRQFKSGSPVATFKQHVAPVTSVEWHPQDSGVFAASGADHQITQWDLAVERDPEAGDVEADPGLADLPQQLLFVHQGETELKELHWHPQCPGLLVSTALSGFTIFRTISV
UniProt Q9NYZ3: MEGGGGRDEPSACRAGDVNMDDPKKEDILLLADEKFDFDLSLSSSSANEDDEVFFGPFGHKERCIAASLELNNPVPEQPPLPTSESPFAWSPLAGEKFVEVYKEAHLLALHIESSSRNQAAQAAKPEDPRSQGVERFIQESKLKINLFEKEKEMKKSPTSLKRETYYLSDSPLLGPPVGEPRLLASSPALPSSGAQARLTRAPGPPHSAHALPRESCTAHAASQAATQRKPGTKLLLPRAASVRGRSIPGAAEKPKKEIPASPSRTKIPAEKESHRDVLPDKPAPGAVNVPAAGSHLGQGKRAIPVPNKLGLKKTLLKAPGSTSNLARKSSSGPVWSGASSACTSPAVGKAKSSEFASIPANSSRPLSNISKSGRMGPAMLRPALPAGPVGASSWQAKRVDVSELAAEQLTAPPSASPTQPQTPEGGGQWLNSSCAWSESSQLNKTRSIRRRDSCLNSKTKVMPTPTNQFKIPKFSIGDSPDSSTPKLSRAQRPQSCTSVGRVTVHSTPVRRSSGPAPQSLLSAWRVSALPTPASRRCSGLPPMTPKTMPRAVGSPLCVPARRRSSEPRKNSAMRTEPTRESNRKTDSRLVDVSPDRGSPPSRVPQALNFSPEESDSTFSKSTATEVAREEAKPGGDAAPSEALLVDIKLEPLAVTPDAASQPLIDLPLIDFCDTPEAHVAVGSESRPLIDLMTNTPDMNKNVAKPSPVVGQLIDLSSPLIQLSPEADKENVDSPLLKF
UniProt P48637: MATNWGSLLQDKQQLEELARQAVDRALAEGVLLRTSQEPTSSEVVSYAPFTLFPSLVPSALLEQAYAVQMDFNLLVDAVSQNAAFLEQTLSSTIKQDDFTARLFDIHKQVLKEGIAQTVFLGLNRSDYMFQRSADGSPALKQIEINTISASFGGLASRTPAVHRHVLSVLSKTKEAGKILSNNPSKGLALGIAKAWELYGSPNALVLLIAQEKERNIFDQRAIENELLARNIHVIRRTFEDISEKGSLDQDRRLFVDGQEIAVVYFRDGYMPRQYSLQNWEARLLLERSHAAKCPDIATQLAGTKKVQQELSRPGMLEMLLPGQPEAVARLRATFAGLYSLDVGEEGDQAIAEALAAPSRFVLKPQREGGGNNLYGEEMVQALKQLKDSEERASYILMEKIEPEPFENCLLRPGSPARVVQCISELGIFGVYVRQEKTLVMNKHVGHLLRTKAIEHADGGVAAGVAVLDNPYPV
UniProt P15170, whole entry, looked up: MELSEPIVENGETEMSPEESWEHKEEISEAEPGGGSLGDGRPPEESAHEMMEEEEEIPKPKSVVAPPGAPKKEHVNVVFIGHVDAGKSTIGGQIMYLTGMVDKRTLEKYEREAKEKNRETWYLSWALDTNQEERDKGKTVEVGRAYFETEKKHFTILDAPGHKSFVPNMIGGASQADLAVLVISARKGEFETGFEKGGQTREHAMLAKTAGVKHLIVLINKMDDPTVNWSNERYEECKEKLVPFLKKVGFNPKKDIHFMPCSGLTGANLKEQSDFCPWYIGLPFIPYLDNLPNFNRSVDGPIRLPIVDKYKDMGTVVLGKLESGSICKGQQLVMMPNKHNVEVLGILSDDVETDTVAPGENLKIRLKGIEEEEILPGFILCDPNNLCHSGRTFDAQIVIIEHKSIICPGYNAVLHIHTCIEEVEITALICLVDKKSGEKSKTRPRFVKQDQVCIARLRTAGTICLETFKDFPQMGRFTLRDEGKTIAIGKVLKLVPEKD
UniProt Q12789: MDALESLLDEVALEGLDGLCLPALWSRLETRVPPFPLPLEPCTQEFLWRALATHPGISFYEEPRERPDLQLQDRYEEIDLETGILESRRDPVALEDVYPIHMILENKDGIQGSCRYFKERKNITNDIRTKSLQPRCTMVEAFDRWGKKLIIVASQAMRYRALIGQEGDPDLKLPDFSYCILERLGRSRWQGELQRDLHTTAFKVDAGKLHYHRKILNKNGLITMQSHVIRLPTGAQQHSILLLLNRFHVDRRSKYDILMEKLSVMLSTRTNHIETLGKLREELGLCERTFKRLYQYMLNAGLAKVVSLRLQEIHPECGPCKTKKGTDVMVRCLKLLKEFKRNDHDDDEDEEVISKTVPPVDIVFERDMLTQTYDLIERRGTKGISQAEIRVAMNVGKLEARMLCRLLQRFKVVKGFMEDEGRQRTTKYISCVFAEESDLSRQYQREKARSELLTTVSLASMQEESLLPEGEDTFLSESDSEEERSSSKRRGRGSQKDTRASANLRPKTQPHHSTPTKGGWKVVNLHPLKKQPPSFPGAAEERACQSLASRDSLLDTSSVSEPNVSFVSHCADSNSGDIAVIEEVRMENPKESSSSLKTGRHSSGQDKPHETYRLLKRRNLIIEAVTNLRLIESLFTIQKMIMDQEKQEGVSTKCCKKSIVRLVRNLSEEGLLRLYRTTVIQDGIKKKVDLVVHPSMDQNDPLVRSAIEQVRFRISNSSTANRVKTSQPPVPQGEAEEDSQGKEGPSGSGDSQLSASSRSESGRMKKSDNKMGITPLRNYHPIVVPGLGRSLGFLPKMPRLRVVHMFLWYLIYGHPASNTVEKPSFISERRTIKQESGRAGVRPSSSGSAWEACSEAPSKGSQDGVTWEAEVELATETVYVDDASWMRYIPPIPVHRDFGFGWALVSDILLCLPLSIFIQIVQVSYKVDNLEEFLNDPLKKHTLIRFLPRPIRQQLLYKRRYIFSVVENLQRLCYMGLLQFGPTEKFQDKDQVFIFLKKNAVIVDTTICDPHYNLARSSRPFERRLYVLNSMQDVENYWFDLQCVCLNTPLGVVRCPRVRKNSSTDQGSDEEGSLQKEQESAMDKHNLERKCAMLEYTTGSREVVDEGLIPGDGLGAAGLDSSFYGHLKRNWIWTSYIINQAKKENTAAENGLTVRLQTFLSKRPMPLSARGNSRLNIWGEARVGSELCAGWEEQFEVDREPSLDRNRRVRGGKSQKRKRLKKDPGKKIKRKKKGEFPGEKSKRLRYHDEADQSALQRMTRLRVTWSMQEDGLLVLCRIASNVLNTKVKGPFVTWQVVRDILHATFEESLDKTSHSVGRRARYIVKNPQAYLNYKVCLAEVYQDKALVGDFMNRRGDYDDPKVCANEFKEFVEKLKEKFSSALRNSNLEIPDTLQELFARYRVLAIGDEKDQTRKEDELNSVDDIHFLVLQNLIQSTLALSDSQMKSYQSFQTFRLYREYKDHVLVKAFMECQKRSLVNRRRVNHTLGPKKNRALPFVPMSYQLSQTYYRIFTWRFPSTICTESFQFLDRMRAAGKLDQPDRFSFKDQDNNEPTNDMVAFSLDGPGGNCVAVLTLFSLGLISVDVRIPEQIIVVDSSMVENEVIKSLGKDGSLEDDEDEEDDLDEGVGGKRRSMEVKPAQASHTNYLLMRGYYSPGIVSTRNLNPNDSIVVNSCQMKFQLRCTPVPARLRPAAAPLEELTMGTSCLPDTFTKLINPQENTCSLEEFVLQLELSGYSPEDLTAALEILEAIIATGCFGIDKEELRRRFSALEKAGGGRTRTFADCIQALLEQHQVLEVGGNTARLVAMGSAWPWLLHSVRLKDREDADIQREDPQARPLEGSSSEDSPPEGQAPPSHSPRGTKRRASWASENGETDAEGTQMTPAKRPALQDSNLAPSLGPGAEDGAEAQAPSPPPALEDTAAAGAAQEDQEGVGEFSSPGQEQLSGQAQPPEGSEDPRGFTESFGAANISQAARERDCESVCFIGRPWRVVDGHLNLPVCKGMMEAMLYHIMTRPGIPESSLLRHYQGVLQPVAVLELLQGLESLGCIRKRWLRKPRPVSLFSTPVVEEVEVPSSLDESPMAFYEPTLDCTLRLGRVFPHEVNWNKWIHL
UniProt P40939: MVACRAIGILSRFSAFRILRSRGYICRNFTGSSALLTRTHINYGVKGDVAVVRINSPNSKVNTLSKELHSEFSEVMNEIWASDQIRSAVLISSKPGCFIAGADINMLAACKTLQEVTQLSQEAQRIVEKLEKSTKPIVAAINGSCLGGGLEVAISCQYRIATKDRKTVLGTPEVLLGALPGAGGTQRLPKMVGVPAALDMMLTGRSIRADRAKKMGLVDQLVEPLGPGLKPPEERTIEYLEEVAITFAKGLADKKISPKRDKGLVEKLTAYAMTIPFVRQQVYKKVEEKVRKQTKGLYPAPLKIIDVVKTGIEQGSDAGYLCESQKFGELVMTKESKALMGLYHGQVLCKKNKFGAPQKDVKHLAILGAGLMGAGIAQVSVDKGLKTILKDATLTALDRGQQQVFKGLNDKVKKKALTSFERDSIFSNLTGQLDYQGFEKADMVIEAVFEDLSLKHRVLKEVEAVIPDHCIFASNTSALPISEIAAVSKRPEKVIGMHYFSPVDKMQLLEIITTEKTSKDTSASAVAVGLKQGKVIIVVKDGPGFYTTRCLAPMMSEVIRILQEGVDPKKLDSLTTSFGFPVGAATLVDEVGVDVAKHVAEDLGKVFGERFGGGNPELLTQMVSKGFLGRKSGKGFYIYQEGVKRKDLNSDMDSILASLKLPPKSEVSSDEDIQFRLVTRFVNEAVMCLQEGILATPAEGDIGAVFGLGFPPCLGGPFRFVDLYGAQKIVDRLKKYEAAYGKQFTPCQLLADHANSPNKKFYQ
UniProt P28799: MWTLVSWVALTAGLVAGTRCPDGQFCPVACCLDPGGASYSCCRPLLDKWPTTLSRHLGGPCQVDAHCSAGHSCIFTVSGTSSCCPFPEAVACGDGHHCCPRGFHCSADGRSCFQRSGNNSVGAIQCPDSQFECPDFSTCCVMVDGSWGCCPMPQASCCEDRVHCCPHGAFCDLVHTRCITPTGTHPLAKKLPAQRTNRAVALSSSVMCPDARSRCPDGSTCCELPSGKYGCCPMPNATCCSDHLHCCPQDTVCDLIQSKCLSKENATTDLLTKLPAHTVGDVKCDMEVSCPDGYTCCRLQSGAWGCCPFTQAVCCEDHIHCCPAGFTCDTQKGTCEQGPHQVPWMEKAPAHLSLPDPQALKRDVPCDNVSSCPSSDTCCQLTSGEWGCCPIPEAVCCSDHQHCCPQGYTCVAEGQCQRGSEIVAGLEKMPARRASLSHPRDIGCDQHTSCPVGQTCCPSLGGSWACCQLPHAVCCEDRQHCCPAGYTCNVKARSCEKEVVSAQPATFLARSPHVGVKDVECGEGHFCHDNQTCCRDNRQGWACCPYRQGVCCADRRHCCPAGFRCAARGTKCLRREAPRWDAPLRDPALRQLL
UniProt P21266: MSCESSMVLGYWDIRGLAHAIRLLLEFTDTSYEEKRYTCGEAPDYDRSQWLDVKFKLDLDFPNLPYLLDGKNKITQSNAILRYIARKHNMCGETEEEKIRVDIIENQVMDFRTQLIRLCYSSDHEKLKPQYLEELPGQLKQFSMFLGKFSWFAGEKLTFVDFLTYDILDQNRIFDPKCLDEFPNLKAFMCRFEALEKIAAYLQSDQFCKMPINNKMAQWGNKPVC
UniProt P12081: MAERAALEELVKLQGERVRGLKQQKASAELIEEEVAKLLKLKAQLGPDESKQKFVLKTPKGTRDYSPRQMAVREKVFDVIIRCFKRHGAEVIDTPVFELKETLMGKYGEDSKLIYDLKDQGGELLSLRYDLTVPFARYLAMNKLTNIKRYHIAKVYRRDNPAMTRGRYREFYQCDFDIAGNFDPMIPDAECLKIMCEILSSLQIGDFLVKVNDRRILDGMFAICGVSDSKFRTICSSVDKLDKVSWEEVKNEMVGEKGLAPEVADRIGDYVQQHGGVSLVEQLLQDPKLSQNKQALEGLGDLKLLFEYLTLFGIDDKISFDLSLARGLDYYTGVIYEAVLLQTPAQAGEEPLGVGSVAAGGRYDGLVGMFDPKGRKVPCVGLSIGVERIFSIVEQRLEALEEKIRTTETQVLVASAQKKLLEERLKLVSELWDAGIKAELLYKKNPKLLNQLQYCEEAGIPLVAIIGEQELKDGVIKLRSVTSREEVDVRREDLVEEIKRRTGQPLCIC

Compound: CC1Cc2ccccc2N1C(=O)C1CCCN(C1)C(=O)CCl (mixture of isomers) [TRIM25 ligand 11 (diastereomer mixture)]
Assay: probe-labelled cysteine peptide fold change vs DMSO (competition) (log2 fold change); higher = less target engagement (more negative = stronger competition)
Settings: THP-1, incubation time: 4 h
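Also: competitive chemoproteomic profiling in live THP-1 cells with an iodoacetamide desthiobiotin (IA-DTB) probe, comparing probe-labelled peptide intensities in compound-treated cells against DMSO-treated controls.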

## GSTM1_P09488_174_CLDAFPNLK (UniProt P09488)
10 µM
  probe-labelled cysteine peptide fold change: 0.0148
50 µM
  probe-labelled cysteine peptide fold change: 0.0175

## GTF2IRD1_Q9UHL9_277_QEAPSCPLAPSDLGLSR (UniProt Q9UHL9)
10 µM
  probe-labelled cysteine peptide fold change: 0.118
50 µM
  probe-labelled cysteine peptide fold change: -0.243

## GRWD1_Q9BQ67_235_LLTGDCQK (UniProt Q9BQ67)
10 µM
  probe-labelled cysteine peptide fold change: -0.0301
50 µM
  probe-labelled cysteine peptide fold change: 0.0128

## GTPBP8_Q8N3Z3_114_IDHAPDLPRPEVCFIGR (UniProt Q8N3Z3)
10 µM
  probe-labelled cysteine peptide fold change: -0.0514
50 µM
  probe-labelled cysteine peptide fold change: 0.0691

## GTSE1_Q9NYZ3_539_AVGSPLCVPAR (UniProt Q9NYZ3)
10 µM
  probe-labelled cysteine peptide fold change: 0.0439
50 µM
  probe-labelled cysteine peptide fold change: 0.23

## GPSM1_Q86YR5_128_FDEAAVCCQR (UniProt Q86YR5)
10 µM
  probe-labelled cysteine peptide fold change: -0.109
50 µM
  probe-labelled cysteine peptide fold change: -0.0486

## GSS_P48637_422_VVQCISELGIFGVYVR (UniProt P48637)
10 µM
  probe-labelled cysteine peptide fold change: -0.15
50 µM
  probe-labelled cysteine peptide fold change: -0.306

## GSPT1_P15170_453_FVKQDQVCIAR (UniProt P15170)
10 µM
  probe-labelled cysteine peptide fold change: -0.525
50 µM
  probe-labelled cysteine peptide fold change: -0.242

## GTF3C5_Q9Y5Q8_75_DPYCHPVCANR (UniProt Q9Y5Q8)
10 µM
  probe-labelled cysteine peptide fold change: 0.361
50 µM
  probe-labelled cysteine peptide fold change: 0.133

## GTF3C1_Q12789_317+320_LQEIHPECGPCK (UniProt Q12789)
10 µM
  probe-labelled cysteine peptide fold change: -0.00301
50 µM
  probe-labelled cysteine peptide fold change: -0.239

## GSDMD_P57764_268_CLHNFLTDGVPAEGAFTEDFQGLRAEVETISK (UniProt P57764)
10 µM
  probe-labelled cysteine peptide fold change: 0.377
50 µM
  probe-labelled cysteine peptide fold change: 0.487

## GRAMD4_Q6IC98_463_GNFHEIFNLTENERPLAVCENGWR (UniProt Q6IC98)
10 µM
  probe-labelled cysteine peptide fold change: 0.166
50 µM
  probe-labelled cysteine peptide fold change: 0.172

## GSDME_O60443_156_NEVLCVLTQK (UniProt O60443)
10 µM
  probe-labelled cysteine peptide fold change: 0.0618
50 µM
  probe-labelled cysteine peptide fold change: 0.202

## HAUS5_O94927_350_CCLWTELK (UniProt O94927)
10 µM
  probe-labelled cysteine peptide fold change: -0.0545
50 µM
  probe-labelled cysteine peptide fold change: 0.214

## GSN_P06396_215_ATEVPVSWESFNNGDCFILDLGNNIHQWCGSNSNR (UniProt P06396)
10 µM
  probe-labelled cysteine peptide fold change: -0.26
50 µM
  probe-labelled cysteine peptide fold change: -0.0284

## GUK1_Q16774_98_ICVLDVDLQGVR (UniProt Q16774)
10 µM
  probe-labelled cysteine peptide fold change: 0.183
50 µM
  probe-labelled cysteine peptide fold change: 0.127

## HADH_Q16836_211_ALGKHPVSCK (UniProt Q16836)
10 µM
  probe-labelled cysteine peptide fold change: -0.647
50 µM
  probe-labelled cysteine peptide fold change: -0.601

## GPT2_Q8TD30_281_CIEDVIHFAWEEK (UniProt Q8TD30)
10 µM
  probe-labelled cysteine peptide fold change: 0.213
50 µM
  probe-labelled cysteine peptide fold change: 0.0432

## HADHA_P40939_349_ALMGLYHGQVLCK (UniProt P40939)
10 µM
  probe-labelled cysteine peptide fold change: 0.0161
50 µM
  probe-labelled cysteine peptide fold change: -0.0845

## GTPBP3_Q969Y2_188_QLDGELGHLCR (UniProt Q969Y2)
10 µM
  probe-labelled cysteine peptide fold change: 0.00128
50 µM
  probe-labelled cysteine peptide fold change: -0.000798

## GSR_P00390_467_MVCANK (UniProt P00390)
10 µM
  probe-labelled cysteine peptide fold change: 0.218
50 µM
  probe-labelled cysteine peptide fold change: 0.213

## GRN_P28799_178_CITPTGTHPLAK (UniProt P28799)
10 µM
  probe-labelled cysteine peptide fold change: 0.0869
50 µM
  probe-labelled cysteine peptide fold change: 0.146

## GTF2F2_P13984_116_AECRPAASENYMR (UniProt P13984)
10 µM
  probe-labelled cysteine peptide fold change: -0.0774
50 µM
  probe-labelled cysteine peptide fold change: -0.231

## GYS1_P13807_214_YLCAGAVDFYNNLENFNVDK (UniProt P13807)
10 µM
  probe-labelled cysteine peptide fold change: -0.0166
50 µM
  probe-labelled cysteine peptide fold change: 0.11

## HADHA_P40939_322_TGIEQGSDAGYLCESQK (UniProt P40939)
10 µM
  probe-labelled cysteine peptide fold change: -0.0938
50 µM
  probe-labelled cysteine peptide fold change: -0.0933

## HAGH_Q16775_219_VYCGHEYTINNLK (UniProt Q16775)
10 µM
  probe-labelled cysteine peptide fold change: 0.0833
50 µM
  probe-labelled cysteine peptide fold change: 0.0446

## GRN_P28799_335_GTCEQGPHQVPWMEK (UniProt P28799)
10 µM
  probe-labelled cysteine peptide fold change: -0.0148
50 µM
  probe-labelled cysteine peptide fold change: 0.0448

## GRWD1_Q9BQ67_299_ACMLTTATAHDGDVNVISWSR (UniProt Q9BQ67)
10 µM
  probe-labelled cysteine peptide fold change: -0.0845
50 µM
  probe-labelled cysteine peptide fold change: -0.105

## H6PD_O95479_393_HWAAAQSQCLPR (UniProt O95479)
10 µM
  probe-labelled cysteine peptide fold change: -0.0176
50 µM
  probe-labelled cysteine peptide fold change: 0.0125

## GSPT1_P15170_464_TAGTICLETFK (UniProt P15170)
10 µM
  probe-labelled cysteine peptide fold change: -0.0521
50 µM
  probe-labelled cysteine peptide fold change: 0.0405

## GSTM3_P21266_208_IAAYLQSDQFCK (UniProt P21266)
10 µM
  probe-labelled cysteine peptide fold change: 0.415
50 µM
  probe-labelled cysteine peptide fold change: 0.274

## GTPBP4_Q9BZE4_261_AAVLYVMDLSEQCGHGLR (UniProt Q9BZE4)
10 µM
  probe-labelled cysteine peptide fold change: 0.177
50 µM
  probe-labelled cysteine peptide fold change: 0.192

## GTF3C1_Q12789_853_AGVRPSSSGSAWEACSEAPSK (UniProt Q12789)
10 µM
  probe-labelled cysteine peptide fold change: 0.0312
50 µM
  probe-labelled cysteine peptide fold change: -0.225

## HARS_P12081_379_KVPCVGLSIGVER (UniProt P12081)
10 µM
  probe-labelled cysteine peptide fold change: -0.0416
50 µM
  probe-labelled cysteine peptide fold change: -0.0375

## GTF3C1_Q12789_1977_ERDCESVCFIGRPWR (UniProt Q12789)
10 µM
  probe-labelled cysteine peptide fold change: -0.0153
50 µM
  probe-labelled cysteine peptide fold change: -0.00454

## GSTM3_P21266_39_YTCGEAPDYDR (UniProt P21266)
10 µM
  probe-labelled cysteine peptide fold change: 0.0109
50 µM
  probe-labelled cysteine peptide fold change: -0.1

## GPKOW_Q92917_394_MIIEDVLSPDTCVCR (UniProt Q92917)
10 µM
  probe-labelled cysteine peptide fold change: 0.0151
50 µM
  probe-labelled cysteine peptide fold change: -0.149

## GRN_P28799_164+165+171_VHCCPHGAFCDLVHTR (UniProt P28799)
10 µM
  probe-labelled cysteine peptide fold change: 0.16
50 µM
  probe-labelled cysteine peptide fold change: -0.0331

## GSN_P06396_331_SEDCFILDHGK (UniProt P06396)
10 µM
  probe-labelled cysteine peptide fold change: 0.0215
50 µM
  probe-labelled cysteine peptide fold change: 0.0214
